Some results were stated once for a whole list of compounds, not compound by compound.
Assays:
Capan-1 (K-Ras G12V) = assay: CellTiter-Glo cell viability assay, Capan-1; assay type: cell-based, human; settings: 5-day treatment, Capan-1 versus A375
K-RasG12V = K-RasG12V (Homo sapiens, UniProt P01116+P62937, G12V); assay: Disruption of BRAF RBD interaction with K-Ras (TR-FRET / MOA assay), K-RasG12V; assay type: biochemical; settings: TR-FRET with cyclophilin A and GST-BRAF RBD, read-out: IC50 with respect to K-RasG12V (disruption of BRAF RBD interaction)

Sequences of proteins named here, by UniProt entry; tags and fusion partners are left off. A change or cut given only in a name is not applied to a line headed by its entry. Residues count along the entry.
UniProt P01116, 1-188 isoform P01116-2 G12V: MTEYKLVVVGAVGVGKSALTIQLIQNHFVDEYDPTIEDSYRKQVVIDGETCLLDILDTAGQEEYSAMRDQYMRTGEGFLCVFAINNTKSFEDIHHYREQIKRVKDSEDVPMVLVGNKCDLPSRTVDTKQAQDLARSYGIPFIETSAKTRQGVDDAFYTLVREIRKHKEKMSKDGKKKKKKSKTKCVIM
UniProt P62937, whole entry: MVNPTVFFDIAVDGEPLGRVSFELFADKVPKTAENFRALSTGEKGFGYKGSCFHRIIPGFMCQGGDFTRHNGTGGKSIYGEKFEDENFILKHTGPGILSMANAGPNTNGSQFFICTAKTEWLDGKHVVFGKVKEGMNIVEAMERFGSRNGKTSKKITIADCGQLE

SMILES	decrease in cell viability with respect to KRAS G12V (Capan-1) versus wild-type KRAS (A375) (Capan-1 (K-Ras G12V))	IC50 (K-RasG12V)
CO[C@@H](C)c1ncc(N2CCN(C3CC3)CC2)cc1-c1c2c3cc(ccc3n1CCOC1CCOCC1)-c1csc(n1)[C@@H](N1CCOCC1)[C@H](NC(=O)C13CC(C1)[C@@H](C)O3)C(=O)N1N[C@H](C(=O)OCC(C)(C)C2)C2CC1C2 (racemic) [Example A636]	greater decrease in cell viability	< 1 µM
CO[C@@H](C)c1ncc(C2CCN(C3CC3)CC2)cc1-c1c2c3cc(ccc3n1CCOC1CCOCC1)-c1csc(n1)[C@@H](N1CCOCC1)[C@H](NC(=O)C13CC(C1)[C@H](C)O3)C(=O)N1N[C@H](C(=O)OCC(C)(C)C2)C2CC1C2 (racemic) [Example A637]	greater decrease in cell viability	< 1 µM
CO[C@@H](C)c1ncc(N2CCN(C3CC3)CC2)cc1-c1c2c3cc(ccc3n1CCOC1CCOCC1)-c1csc(n1)[C@@H](N1CCOCC1)[C@H](NC(=O)[C@@H]1[C@@H](C)[C@H]1c1ccncn1)C(=O)N1CCC[C@H](C1)C(=O)OCC(C)(C)C2 (racemic) [Example A639]	greater decrease in cell viability	< 1 µM
CO[C@@H](C)c1ncc(N2CCN(C3CC3)CC2)cc1-c1c2c3cc(ccc3n1CCOC1CCOCC1)-c1csc(n1)[C@@H](N1CC3CCC3C1)[C@H](NC(=O)[C@H]1[C@H](C)[C@@H]1C)C(=O)N1CCC[C@H](N1)C(=O)OCC(C)(C)C2 (mixture of isomers) [Example A640]	greater decrease in cell viability	< 1 µM
CO[C@@H](C)c1ncc(N2CCN(C3CC3)CC2)cc1-c1c2c3cc(ccc3n1CCOC1CCOCC1)-c1nc(co1)[C@@H](N1CCCC1)[C@H](NC(=O)C13CC(C1)[C@@H](C)O3)C(=O)N1CCC[C@H](N1)C(=O)OCC(C)(C)C2 (racemic) [Example A641]	greater decrease in cell viability	< 1 µM
CO[C@@H](C)c1ncc(N2CCN(C3CC3)CC2)cc1-c1c2c3cc(ccc3n1CCOC1CCOCC1)-c1csc(n1)[C@@H](OCC(F)F)[C@H](NC(=O)[C@@H]1CCO1)C(=O)N1N[C@H](C(=O)OCC(C)(C)C2)C2CC1C2 (racemic) [Example A642]	greater decrease in cell viability	< 1 µM
CO[C@@H](C)c1ncc(N2CCN(C3CC3)CC2)cc1-c1c2c3cc(ccc3n1CCOC1CCOCC1)-c1csc(n1)[C@@H](OCC(F)F)[C@H](NC(=O)[C@@H]1[C@@H](C)[C@H]1[C@H]1CCCO1)C(=O)N1CCC[C@H](N1)C(=O)OCC(C)(C)C2 (racemic) [Example A643]	greater decrease in cell viability	< 1 µM
CO[C@@H](C)c1ncc(N2CCN(C3CC3)CC2)cc1-c1c2c3cc(ccc3n1CCOC1CCOCC1)-c1csc(n1)[C@@H](N1CCCC1)[C@H](NC(=O)[C@H]1[C@H](C)[C@@H]1[C@H]1CCCO1)C(=O)N1CCC[C@H](N1)C(=O)OCC(C)(C)C2 (racemic) [Example A644]	greater decrease in cell viability	< 1 µM
CO[C@@H](C)c1ncc(N2CCN(C3CC3)CC2)cc1-c1c2c3cc(ccc3n1CCOC1CCOCC1)-c1csc(n1)[C@@H](N1CCCC1)[C@H](NC(=O)[C@@H]1[C@@H](C)[C@H]1[C@H]1CCCO1)C(=O)N1CCC[C@H](N1)C(=O)OCC(C)(C)C2 (racemic) [Example A645]	greater decrease in cell viability	< 1 µM
CO[C@@H](C)c1ncccc1-c1c2c3cc(ccc3n1C1COC1)-c1csc(n1)[C@@H](N1CCCC1)[C@H](NC(=O)[C@@H]1[C@@H](C)[C@H]1c1cocn1)C(=O)N1CCC[C@H](N1)C(=O)OCC(C)(C)C2 (racemic) [Example A646]	greater decrease in cell viability	< 1 µM
CO[C@@H](C)c1ncccc1-c1c2c3cc(ccc3n1CCOC1CCOCC1)-c1csc(n1)[C@@H](N1CC[C@H](F)C1)[C@H](NC(=O)[C@@H]1[C@H](C)[C@H]1c1ccncn1)C(=O)N1CCC[C@H](N1)C(=O)OCC(C)(C)C2 (racemic) [Example A647]	greater decrease in cell viability	< 1 µM
CO[C@@H](C)c1ncc(N2CCN(C3CC3)CC2)cc1-c1c2c3cc(ccc3n1CCOC1CCOCC1)-c1csc(n1)[C@@H](N1CC3CC1C3)[C@H](NC(=O)[C@H]1[C@H](C)[C@@H]1C)C(=O)N1CCC[C@H](N1)C(=O)OCC(C)(C)C2 (racemic) [Example A649]	greater decrease in cell viability	< 1 µM
CO[C@@H](C)c1ncc(N2CCN(C3CC3)CC2)cc1-c1c2c3cc(ccc3n1CCOC1CCOCC1)-c1csc(n1)[C@@H](N1CC[C@H](F)C1)[C@H](NC(=O)C13CC(CO1)C3)C(=O)N1CCC[C@H](N1)C(=O)OCC(C)(C)C2 (racemic) [Example A650]	greater decrease in cell viability	< 1 µM
CO[C@@H]1CCN([C@@H]2c3nc(cs3)-c3ccc4c(c3)c(c(-c3cc(N5CCN(C6CC6)CC5)cnc3[C@H](C)OC)n4CCOC3CCOCC3)CC(C)(C)COC(=O)[C@@H]3CCCN(N3)C(=O)[C@H]2NC(=O)C23CC(CO2)C3)C1 (racemic) [Example A651]	greater decrease in cell viability	< 1 µM
CO[C@@H](C)c1ncc(N2CCN(C3CC3)CC2)cc1-c1c2c3cc(ccc3n1CCOC1CCOCC1)-c1csc(n1)[C@@H](N1CC[C@H](F)C1)[C@H](NC(=O)[C@@H]1CCO1)C(=O)N1CCC[C@H](N1)C(=O)OCC(C)(C)C2 (racemic) [Example A652]	greater decrease in cell viability	< 1 µM
CO[C@@H]1CCN([C@@H]2c3nc(cs3)-c3ccc4c(c3)c(c(-c3cc(N5CCN(C6CC6)CC5)cnc3[C@H](C)OC)n4CCOC3CCOCC3)CC(C)(C)COC(=O)[C@@H]3CCCN(N3)C(=O)[C@H]2NC(=O)C2CCO2)C1 (mixture of isomers) [Example A653]	greater decrease in cell viability	< 1 µM
CO[C@@H](C)c1ncc(N2CCN(C3CC3)CC2)cc1-c1c2c3cc(ccc3n1CCOC1CCOCC1)-c1csc(n1)[C@@H](N1CC[C@H](F)C1)[C@H](NC(=O)[C@@H]1[C@@H](C)[C@H]1c1cocn1)C(=O)N1CCCC(N1)C(=O)OCC(C)(C)C2 (mixture of isomers) [Example A654]	greater decrease in cell viability	< 1 µM
CO[C@@H]1CCN([C@@H]2c3nc(cs3)-c3ccc4c(c3)c(c(-c3cc(N5CCN(C6CC6)CC5)cnc3[C@H](C)OC)n4CCOC3CCOCC3)CC(C)(C)COC(=O)C3CCCN(N3)C(=O)[C@H]2NC(=O)[C@@H]2[C@@H](C)[C@H]2c2cocn2)C1 (mixture of isomers) [Example A655]	greater decrease in cell viability	< 1 µM
CCO[C@@H]1c2nc(cs2)-c2ccc3c(c2)c(c(-c2cc(N4CCN(C5CC5)CC4)cnc2[C@H](C)OC)n3CCOC2CCOCC2)CC(C)(C)COC(=O)[C@H]2NN(C(=O)[C@H]1NC(=O)C1(C#N)CCC1)C1CC2C1 (racemic) [Example A657]	greater decrease in cell viability	< 1 µM
CO[C@@H](C)c1ncc(N2CCN(C3CC3)CC2)cc1-c1c2c3cc(ccc3n1CCOC1CCOCC1)-c1csc(n1)[C@@H](N1CCOCC1)[C@H](NC(=O)C1(C#N)CCO1)C(=O)N1N[C@H](C(=O)OCC(C)(C)C2)C2CC1C2 (mixture of isomers) [Example A658]	greater decrease in cell viability	< 1 µM
CO[C@@H](C)c1ncc(N2CCN(C3CC3)CC2)cc1-c1c2c3cc(ccc3n1CCOC1CCOCC1)-c1csc(n1)[C@@H](OCC(F)F)[C@H](NC(=O)C13CC(CO1)C3)C(=O)N1N[C@H](C(=O)OCC(C)(C)C2)C2CC1C2 (racemic) [Example A659]	greater decrease in cell viability	< 1 µM
CCO[C@@H]1c2nc(cs2)-c2ccc3c(c2)c(c(-c2cc(N4CCN(C5CC5)CC4)cnc2[C@H](C)OC)n3CCOC2CCOCC2)CC(C)(C)COC(=O)[C@H]2NN(C(=O)[C@H]1NC(=O)C13CC(CO1)C3)C1CC2C1 (racemic) [Example A660]	greater decrease in cell viability	< 1 µM
CO[C@@H](C)c1ncc(N2CCN(C3CC3)CC2)cc1-c1c2c3cc(ccc3n1CCOC1CCOCC1)-c1csc(n1)[C@@H](N1CCOCC1)[C@H](NC(=O)C13CC(CO1)C3)C(=O)N1N[C@H](C(=O)OCC(C)(C)C2)C2CC1C2 (racemic) [Example A661]	greater decrease in cell viability	< 1 µM
CO[C@@H](C)c1ncc(N2CCN(C3CC3)CC2)cc1-c1c2c3cc(ccc3n1CCOC1CCOCC1)-c1csc(n1)[C@@H](N1CC[C@@H](C#N)C1)[C@H](NC(=O)C13CC(CO1)C3)C(=O)N1CCC[C@H](N1)C(=O)OCC(C)(C)C2 (racemic) [Example A663]	greater decrease in cell viability	< 1 µM
CO[C@@H](C)c1ncc(N2CCN(C3CC3)CC2)cc1-c1c2c3cc(ccc3n1CCOC1CCOCC1)-c1csc(n1)[C@@H](N1CC[C@@H](C#N)C1)[C@H](NC(=O)C1CCO1)C(=O)N1CCC[C@H](N1)C(=O)OCC(C)(C)C2 (mixture of isomers) [Example A664]	greater decrease in cell viability	< 1 µM
